Test results taken from paper PMC8395132.
No constants are given. Whether binding was seen depends on the method and setting. In cells and extracts the contact can be indirect. Some results given as binding are weak or reduced against the parent protein; the word gives no strength.

Amino acid sequences for entries named in this document (tags omitted).
UniProt P21926: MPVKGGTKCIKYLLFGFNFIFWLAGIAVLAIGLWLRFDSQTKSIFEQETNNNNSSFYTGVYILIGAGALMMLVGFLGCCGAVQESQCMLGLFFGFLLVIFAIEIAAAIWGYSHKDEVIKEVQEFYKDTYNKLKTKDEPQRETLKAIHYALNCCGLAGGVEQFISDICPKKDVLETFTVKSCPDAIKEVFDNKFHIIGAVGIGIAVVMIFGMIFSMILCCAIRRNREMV

Key:
CD82 = target: T1, CD82 (UniProt P27701); assay: co-IP; surface-biotinylated HB2 cells, treated or not with PPMP, lysed in 30 mM Tris pH 7.4, 150 mM NaCl, 1% Brij97; 1 ug primary antibody and protein G-sepharose beads, 2 h at 4 °C; washes with 0.5% Brij97; non-reducing SDS-PAGE, blot with streptavidin-Alexa680
T1 sequence (chain, biotin (cells incubated with biotin before lysis)): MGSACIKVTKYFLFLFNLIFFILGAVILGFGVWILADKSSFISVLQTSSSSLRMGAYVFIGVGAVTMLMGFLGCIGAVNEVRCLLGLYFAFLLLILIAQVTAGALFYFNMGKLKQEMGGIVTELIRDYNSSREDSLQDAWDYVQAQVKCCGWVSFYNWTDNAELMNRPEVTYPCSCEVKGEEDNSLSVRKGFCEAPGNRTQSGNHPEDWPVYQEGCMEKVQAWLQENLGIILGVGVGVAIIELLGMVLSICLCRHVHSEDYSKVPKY

[1] = target: CD9 (human (endogenous in HB2)) (UniProt P21926); assay: as above

Row | Molecule | binding (CD82) | binding [1]
1 | CD9 (from UniProt P21926 1-228) | binds | 
2 | CD81 (protein, UniProt P60033 1-236, biotin (cells incubated with biotin before lysis)) MGVEGCTKCIKYLLFVFNFVFWLAGGVILGVALWLRHDPQTTNLLYLELGDKPAPNTFYVGIYILIAVGAVMMFVGFLGCYGAIQESQCLLGTFFTCLVILFACEVAAGIWGFVNKDQIAKDVKQFYDQALQQAVVDDDANNAKAVVKTFHETLDCCGSSTLTALTTSVLKNNLCPSGSNIISNLFKEDCHQKIDDLFSGKLYLIGIAAIVVAVIMIFEMILSMVLCCGIRNSSVY | binds | binds
